Drawing on paper PMC12715911, this text covers binding for one substance.

These are yes or no findings as the source states them, for the method shown. In cells and extracts the contact can be indirect. A result given as binding can be weak or reduced; the word gives no strength.

For this assay, the target named is T1, nuclear factor erythroid 2-related factor 2 (NRF2) (bovine (endogenous in BEECs)) (UniProt Q5NUA6).
T1 sequence: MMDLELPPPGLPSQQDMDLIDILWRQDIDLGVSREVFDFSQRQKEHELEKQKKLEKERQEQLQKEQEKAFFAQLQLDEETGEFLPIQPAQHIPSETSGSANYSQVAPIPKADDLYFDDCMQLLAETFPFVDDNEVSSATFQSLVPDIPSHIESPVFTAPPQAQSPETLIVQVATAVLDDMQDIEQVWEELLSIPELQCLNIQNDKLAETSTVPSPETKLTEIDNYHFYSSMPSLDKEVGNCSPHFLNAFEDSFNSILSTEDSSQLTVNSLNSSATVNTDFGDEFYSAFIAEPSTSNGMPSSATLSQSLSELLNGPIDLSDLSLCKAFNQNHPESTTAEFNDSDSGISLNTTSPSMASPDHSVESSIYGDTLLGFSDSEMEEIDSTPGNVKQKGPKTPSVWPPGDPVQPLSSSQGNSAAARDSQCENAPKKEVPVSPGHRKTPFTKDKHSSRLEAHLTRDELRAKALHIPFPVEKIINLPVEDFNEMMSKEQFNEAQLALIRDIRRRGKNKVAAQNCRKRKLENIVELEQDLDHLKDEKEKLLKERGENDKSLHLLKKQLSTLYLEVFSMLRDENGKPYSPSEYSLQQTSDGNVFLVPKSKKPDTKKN
Briefly: co-IP; BEEC lysate incubated with anti-NRF2 antibody at 4 °C overnight, then protein A/G at 4 °C overnight; washed three times; immunoblot with anti-GSK-3β; BEECs infected with E. coli. (In general: In western blotting, separated proteins are transferred to a membrane and probed.)

As to “glycogen synthase kinase (GSK)-3β (bovine (endogenous in BEECs))”, the binding result was “binds”.
